Assay results from the supplement of paper PMC12819154, “High-throughput peptide-centric local stability assay extends protein–ligand identification to membrane proteins, tissues and bacteria” (Nature Structural & Molecular Biology, 2025).
The list shows a part of the results. Most entries show no effect beyond the scatter of the controls.

Chains of the proteins cited; added tags and fusions are not shown. Lines headed by an entry give the natural chain unless they say otherwise; changes in a name come on top.
UniProt F6XZJ7: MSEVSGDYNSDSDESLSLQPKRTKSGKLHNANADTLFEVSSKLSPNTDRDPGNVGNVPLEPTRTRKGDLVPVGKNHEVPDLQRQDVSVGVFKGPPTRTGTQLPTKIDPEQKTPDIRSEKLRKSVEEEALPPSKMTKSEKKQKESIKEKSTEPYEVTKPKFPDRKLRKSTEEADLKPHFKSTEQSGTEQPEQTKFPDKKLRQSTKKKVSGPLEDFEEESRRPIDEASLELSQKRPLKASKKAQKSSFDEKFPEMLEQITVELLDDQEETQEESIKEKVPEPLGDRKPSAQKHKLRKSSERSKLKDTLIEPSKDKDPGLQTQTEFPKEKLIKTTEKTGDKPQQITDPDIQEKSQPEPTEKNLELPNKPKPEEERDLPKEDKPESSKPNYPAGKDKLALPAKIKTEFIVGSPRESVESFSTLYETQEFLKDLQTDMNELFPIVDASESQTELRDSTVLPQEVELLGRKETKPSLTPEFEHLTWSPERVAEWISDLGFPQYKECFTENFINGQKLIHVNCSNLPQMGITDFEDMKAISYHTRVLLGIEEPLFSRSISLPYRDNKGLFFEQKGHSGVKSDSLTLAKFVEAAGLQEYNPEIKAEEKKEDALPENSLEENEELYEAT
UniProt O09130: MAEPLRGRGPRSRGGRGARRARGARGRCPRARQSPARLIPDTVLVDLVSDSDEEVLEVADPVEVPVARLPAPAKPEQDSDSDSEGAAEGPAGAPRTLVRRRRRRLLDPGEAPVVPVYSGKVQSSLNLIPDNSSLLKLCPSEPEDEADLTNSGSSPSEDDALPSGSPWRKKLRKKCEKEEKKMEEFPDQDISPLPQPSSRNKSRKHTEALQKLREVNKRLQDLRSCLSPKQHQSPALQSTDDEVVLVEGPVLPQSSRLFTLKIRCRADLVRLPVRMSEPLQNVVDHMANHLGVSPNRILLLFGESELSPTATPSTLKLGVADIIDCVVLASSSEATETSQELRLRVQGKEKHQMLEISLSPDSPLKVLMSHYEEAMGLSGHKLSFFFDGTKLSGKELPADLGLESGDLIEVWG
UniProt E9Q5K4: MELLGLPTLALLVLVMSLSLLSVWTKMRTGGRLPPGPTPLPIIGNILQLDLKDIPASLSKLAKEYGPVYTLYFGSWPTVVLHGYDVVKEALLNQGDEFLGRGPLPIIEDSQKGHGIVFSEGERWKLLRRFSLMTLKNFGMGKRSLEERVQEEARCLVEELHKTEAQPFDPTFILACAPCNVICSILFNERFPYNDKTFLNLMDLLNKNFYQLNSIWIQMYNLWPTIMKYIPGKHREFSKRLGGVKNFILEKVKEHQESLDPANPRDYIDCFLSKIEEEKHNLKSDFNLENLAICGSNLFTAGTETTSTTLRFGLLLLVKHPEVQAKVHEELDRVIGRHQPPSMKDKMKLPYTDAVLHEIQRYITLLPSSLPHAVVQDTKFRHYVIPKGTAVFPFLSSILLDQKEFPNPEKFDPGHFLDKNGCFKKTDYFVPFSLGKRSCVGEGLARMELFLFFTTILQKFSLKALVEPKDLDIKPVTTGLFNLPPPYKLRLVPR
UniProt O08717: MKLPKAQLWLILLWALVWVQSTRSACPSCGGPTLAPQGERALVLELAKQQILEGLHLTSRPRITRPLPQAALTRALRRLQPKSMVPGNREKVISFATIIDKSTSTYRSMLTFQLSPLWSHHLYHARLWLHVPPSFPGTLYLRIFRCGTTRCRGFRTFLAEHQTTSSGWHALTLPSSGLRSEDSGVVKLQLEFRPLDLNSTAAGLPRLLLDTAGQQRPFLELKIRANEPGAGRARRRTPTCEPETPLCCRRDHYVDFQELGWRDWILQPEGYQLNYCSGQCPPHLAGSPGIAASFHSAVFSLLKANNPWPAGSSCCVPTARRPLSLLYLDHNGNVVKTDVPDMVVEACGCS
UniProt D3Z7Q2: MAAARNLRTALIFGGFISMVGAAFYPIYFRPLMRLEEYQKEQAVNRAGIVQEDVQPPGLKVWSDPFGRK

Compound: CN[C@@H]1C[C@H]2O[C@@](C)([C@@H]1OC)n1c3ccccc3c3c4c(c5c6ccccc6n2c5c31)C(=O)NC4 [staurosporine]
Test: log2 fold change of tryptic peptide abundance, ligand vs vehicle (limited proteolysis) (log2 ratio); higher = more trypsin-susceptible (destabilized)
Conditions: ligand concentration: 20 uM; sample: mouse liver crude lysate; replicate design: treated separately

| Target | log2 fold change |
| --- | --- |
| UniProt F6XZJ7 (peptide sequence: PKPEEERDLPK, peptide start residue: 366) | 0.311 |
| UniProt O09130 (peptide sequence: VLMSHYEEAMGLSGHK, peptide start residue: 366) | -0.463 |
| UniProt E9Q5K4 (peptide sequence: YITLLPSSLPHAVVQDTK, peptide start residue: 362) | -0.224 |
| UniProt O08717 (peptide sequence: QQILEGLHLTSRPR, peptide start residue: 49) | -0.218 |
| UniProt D3Z7Q2 (peptide sequence: LEEYQKEQAVNR, peptide start residue: 35) | -0.144 |
